Test results: patent US6410587B1, “Compounds and therapies for the prevention of vascular and non-vascular pathologies” (NeoRx Corporation, priority 1997, dated 2002)
For part of these data: For at least one compound, name, drawing or mass did not settle the structure. Some of these results come from one statement about several compounds together.

Key:
TGF-beta = TGF-beta in vessel wall of apoE knockout mice (quantitative immunofluorescence); type: in vivo, mouse; conditions: three months
Method: No. 08/478,936, filed Jun. 7, 1995, which is incorporated by reference herein. […] Sigma) and fixed in ice-cold acetone for 90 seconds, air-dried and stored at -20° C. until assayed. […] R&D Systems), see Mosedale et al., Histochem. Cytochem., 44, 1043 (1996), the disclosure of which is incorporated by reference herein. Active TGF-beta wag measured by quantitative immunofluorescence microscopy using the recombinant extracellular domain of the type II TGF-beta receptor […]) labeled with fluorescein.

[1] = Serum lipid and lipoprotein profile of apoE knockout mice; type: in vivo, mouse; conditions: three months
Method: The effect of each treatment on the lipid profile of each group of mice was determined by measuring the cholesterol and triglyceride. Blood from a terminal bleed was collected in a polypropylene tube, allowed to clot at room temperature for 2 hours and then spun (1,000×g; 5 minutes). The serum supernatant was aliquoted and stored at −20° C. until assayed. Total cholesterol and total triglycerides were determined for each mouse using the cholesterol oxidase and glycerol kinase UV end-point enzymatic methods respectively (Sigma Diagnostics).

[2] = Simvastatin for 16 weeks in patients with high cholesterol; type: in vivo, human; conditions: 26 patients
Method: Twenty six patients with high cholesterol were administered simnvastatin for 16 weeks. Blood was collected at six times points during the 16 weeks and analyzed for TGF-beta levels.

human VSMCs = test: Proliferation of human explant-derived VSMCs (cell count at 96 h); type: cell-based; conditions: 10 μM; 25 μg/ml antibody
GR = test: MMTV LTR-CAT reporter in stably transfected SMCs; type: cell-based; conditions: TNF-alpha (up to 100 ng/ml), tamoxifen (up to 10 μM) or both together
Description: Because ER. interacts with NFkB transcription factor complexes in a similar manner to that for GR, agents which modulate ER/NFkB interaction should modulate the inflammatory response without activating GR. To test this hypothesis, SMCs in DMEM+10% FCS were transfected with a vector comprising the MMTV LTR promoter coupled to the chloramphenicol acetyl transferase (CAT) gene and the neomycin resistance gene (neo). A stably transfected line was selected using geneticin. When these cells were treated with dexamethasone, expression of the CAT gene was elevated 3.7±0.7 fold. […] Thus, ER/NFkB modulators would be expected to circumvent the undesirable side-effect profile associated with direct transcriptional activation by GR.

CCC(C)(C)C(=O)O[C@H]1C[C@@H](C)C=C2C=C[C@H](C)[C@H](CC[C@@H]3C[C@@H](O)CC(=O)O3)[C@H]21 [Zocor, simvastatin]
change in (a+1) TGF-beta in vessel wall relative to control mice (TGF-beta): no difference | change in active TGF-beta in vessel wall relative to control mice (TGF-beta): no difference | change in HDL-cholesterol vs control mice [1]: increase | serum cholesterol levels [2]: reduced

CC(=O)Oc1ccccc1C(=O)[O-].[Na+] [sodium aspirinate]
growth inhibitory effect abolished by neutralizing antibody to TGF-beta (human VSMCs): > 95%

TNF-alpha
stimulation of expression of the CAT gene (GR): up to 10%
